The values that follow come from PMC5526866.

Protein sequences, listed by entry. Tags and fused reporters are not part of them. Residues count along the entry.
UniProt P02769, residues 25-607: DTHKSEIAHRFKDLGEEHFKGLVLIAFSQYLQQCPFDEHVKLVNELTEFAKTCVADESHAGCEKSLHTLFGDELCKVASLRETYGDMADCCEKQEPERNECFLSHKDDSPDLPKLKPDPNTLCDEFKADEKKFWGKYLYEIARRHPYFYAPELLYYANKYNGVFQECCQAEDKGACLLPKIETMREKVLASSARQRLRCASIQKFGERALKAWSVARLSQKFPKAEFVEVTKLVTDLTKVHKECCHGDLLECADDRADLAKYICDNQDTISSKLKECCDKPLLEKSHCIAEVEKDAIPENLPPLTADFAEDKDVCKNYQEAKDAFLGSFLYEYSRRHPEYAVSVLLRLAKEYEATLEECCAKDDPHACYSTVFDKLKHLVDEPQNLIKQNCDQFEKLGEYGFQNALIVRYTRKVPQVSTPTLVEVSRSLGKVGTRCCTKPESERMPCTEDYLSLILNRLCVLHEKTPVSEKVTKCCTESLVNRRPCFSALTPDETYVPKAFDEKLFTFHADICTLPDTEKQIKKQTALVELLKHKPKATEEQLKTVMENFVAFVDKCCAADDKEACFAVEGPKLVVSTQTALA
UniProt B2RWS6: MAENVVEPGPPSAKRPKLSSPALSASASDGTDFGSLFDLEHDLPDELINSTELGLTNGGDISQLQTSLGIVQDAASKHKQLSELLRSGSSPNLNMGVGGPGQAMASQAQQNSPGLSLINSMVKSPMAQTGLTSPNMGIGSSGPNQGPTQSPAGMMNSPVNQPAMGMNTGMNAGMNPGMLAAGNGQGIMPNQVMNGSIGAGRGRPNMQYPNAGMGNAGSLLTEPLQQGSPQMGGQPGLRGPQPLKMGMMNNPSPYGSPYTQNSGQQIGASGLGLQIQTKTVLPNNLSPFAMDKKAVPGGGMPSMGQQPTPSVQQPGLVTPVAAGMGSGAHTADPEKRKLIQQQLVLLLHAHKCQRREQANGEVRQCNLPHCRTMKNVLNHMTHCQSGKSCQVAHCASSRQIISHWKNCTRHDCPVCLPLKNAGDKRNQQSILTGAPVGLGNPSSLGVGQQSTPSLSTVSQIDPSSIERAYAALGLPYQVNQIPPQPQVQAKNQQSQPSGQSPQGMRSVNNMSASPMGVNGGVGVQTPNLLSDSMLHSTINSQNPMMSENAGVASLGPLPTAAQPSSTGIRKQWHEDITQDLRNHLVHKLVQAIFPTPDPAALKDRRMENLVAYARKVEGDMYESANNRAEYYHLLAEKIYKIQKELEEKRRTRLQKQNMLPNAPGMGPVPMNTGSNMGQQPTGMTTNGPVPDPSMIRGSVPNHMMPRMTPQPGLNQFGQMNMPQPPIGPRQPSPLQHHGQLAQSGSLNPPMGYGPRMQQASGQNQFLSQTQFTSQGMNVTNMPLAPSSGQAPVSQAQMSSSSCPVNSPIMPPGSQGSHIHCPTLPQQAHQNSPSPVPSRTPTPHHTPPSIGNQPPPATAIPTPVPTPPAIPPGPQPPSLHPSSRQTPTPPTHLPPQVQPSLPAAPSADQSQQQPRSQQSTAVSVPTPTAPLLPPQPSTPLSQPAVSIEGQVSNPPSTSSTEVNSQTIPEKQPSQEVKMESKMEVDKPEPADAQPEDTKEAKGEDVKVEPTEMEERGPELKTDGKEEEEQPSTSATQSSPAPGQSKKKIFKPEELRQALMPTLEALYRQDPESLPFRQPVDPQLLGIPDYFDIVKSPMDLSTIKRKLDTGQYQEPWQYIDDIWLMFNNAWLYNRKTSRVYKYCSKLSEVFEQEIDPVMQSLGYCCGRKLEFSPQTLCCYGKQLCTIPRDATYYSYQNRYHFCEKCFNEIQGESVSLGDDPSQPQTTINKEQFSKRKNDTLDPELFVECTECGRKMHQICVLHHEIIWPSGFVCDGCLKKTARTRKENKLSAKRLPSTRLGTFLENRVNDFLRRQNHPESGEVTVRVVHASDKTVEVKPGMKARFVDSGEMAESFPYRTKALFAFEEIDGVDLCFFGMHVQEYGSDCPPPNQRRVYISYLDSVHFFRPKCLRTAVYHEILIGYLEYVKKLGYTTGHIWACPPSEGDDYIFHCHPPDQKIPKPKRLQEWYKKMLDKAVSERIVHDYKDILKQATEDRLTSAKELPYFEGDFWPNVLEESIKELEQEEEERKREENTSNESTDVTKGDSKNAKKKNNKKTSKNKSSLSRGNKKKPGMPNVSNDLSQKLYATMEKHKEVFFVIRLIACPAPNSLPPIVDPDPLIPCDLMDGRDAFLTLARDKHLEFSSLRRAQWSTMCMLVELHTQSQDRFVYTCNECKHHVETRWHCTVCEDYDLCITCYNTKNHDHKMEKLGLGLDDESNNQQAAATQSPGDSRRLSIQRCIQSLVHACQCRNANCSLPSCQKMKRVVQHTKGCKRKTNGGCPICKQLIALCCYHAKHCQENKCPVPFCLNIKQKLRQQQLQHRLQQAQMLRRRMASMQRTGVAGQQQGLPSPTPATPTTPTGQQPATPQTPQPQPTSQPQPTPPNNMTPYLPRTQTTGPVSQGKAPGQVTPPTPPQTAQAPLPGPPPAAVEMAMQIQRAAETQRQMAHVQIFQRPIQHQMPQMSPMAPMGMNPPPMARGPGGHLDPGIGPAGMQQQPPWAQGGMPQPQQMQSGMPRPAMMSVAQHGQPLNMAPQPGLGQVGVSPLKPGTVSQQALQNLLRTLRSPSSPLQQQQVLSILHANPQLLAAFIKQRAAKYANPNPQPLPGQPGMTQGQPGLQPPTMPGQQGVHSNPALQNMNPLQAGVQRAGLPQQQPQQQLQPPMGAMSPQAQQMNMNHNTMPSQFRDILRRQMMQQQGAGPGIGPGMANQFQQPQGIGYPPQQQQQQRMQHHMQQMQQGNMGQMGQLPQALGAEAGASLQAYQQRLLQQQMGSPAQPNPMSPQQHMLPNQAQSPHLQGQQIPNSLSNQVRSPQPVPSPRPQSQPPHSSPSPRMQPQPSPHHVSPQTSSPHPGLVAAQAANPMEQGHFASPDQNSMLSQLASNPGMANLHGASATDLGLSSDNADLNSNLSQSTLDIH
UniProt Q09472: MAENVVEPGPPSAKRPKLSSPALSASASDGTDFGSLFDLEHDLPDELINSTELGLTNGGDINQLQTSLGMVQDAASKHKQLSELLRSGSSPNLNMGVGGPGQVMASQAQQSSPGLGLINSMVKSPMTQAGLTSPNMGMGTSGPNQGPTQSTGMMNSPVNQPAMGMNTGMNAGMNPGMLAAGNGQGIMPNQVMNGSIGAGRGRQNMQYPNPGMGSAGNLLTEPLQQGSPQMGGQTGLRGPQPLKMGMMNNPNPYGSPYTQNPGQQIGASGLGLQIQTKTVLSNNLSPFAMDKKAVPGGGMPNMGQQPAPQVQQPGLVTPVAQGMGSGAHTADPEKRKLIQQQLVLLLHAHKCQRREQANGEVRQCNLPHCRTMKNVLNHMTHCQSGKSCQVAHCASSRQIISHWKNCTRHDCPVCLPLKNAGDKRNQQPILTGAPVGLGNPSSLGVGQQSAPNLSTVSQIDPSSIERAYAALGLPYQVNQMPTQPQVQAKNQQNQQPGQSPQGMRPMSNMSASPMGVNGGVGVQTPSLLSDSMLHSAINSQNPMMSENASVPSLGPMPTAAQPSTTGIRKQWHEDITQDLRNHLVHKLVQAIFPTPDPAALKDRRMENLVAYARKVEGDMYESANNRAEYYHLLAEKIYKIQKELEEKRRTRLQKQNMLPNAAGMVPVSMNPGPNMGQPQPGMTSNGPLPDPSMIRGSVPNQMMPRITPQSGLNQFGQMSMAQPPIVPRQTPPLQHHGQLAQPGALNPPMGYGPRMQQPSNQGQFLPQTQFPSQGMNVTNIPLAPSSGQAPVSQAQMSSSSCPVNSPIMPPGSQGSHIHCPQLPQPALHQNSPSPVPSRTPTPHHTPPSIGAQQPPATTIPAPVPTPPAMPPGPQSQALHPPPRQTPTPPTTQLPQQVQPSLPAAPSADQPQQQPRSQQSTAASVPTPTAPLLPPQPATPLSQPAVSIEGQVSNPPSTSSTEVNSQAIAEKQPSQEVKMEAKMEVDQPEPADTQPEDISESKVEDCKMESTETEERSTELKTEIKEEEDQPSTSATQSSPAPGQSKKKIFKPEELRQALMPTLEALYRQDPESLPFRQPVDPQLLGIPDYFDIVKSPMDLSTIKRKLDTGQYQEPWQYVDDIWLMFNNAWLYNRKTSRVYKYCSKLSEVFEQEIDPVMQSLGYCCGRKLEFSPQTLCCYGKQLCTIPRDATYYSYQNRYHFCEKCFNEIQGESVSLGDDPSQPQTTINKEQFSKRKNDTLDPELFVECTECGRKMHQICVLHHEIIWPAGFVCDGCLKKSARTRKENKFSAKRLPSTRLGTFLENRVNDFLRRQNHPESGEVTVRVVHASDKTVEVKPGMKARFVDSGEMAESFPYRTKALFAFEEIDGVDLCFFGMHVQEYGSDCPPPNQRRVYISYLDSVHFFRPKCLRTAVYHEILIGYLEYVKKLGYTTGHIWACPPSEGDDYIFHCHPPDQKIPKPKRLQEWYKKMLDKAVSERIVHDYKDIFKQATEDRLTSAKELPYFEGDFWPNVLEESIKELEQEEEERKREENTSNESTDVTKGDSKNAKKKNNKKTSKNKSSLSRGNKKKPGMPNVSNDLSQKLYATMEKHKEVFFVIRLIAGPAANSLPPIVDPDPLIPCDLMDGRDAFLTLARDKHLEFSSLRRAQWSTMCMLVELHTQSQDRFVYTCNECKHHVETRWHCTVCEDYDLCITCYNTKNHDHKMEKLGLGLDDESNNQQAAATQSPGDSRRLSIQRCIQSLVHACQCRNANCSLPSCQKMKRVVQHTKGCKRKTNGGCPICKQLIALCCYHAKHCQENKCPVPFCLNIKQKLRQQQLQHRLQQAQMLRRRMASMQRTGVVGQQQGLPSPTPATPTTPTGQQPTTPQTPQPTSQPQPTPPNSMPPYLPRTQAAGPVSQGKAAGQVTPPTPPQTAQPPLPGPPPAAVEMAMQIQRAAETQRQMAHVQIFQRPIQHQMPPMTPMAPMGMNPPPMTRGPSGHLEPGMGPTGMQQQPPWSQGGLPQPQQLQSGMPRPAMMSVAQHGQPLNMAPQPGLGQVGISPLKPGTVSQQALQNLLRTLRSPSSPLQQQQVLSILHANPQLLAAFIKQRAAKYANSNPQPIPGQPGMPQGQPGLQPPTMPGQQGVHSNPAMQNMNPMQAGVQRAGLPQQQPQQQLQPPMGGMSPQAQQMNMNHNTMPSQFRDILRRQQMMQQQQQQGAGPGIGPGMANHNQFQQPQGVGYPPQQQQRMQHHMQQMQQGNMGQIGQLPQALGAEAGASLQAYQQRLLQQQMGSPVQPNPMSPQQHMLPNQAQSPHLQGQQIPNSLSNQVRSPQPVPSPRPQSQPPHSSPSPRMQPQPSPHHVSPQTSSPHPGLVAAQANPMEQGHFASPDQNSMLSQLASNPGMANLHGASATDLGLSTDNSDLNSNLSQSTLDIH
UniProt P15208, residues 753-1372: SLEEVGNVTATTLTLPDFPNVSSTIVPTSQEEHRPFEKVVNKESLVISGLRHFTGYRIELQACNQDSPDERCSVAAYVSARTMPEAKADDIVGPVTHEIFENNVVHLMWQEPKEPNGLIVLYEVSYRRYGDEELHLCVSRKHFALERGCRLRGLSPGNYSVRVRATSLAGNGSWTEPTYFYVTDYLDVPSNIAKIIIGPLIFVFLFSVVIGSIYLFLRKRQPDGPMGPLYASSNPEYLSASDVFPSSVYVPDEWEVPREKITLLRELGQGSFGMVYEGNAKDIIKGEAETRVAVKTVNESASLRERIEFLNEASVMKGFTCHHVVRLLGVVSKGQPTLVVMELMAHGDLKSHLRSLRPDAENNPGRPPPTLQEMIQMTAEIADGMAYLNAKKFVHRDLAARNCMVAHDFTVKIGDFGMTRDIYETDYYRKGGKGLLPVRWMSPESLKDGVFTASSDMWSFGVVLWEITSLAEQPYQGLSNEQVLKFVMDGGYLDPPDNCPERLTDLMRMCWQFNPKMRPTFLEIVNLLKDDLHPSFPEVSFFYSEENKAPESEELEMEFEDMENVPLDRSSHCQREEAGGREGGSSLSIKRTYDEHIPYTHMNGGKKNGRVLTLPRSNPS

These are yes or no findings as the source states them, for the method shown. For some of these results: Binding seen in cells or lysates may run through a third protein. Some results given as binding are weak or reduced against the parent protein; the word gives no strength. For some of these results: Sequences can lack the tags named with a protein.

One test addresses T1, FLAG-tagged XBP1s (UniProt O35426).
T1 sequence: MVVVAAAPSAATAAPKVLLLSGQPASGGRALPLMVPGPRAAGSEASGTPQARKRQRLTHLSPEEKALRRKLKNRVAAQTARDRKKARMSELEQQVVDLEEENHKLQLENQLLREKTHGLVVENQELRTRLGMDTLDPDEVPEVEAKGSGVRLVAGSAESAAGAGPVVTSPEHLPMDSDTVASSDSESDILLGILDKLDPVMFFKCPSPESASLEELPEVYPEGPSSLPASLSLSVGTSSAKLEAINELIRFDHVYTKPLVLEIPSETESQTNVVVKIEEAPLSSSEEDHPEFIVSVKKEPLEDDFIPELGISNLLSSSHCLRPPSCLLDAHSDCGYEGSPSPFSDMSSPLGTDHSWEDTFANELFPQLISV
In words: far-Western, overlay or dot blot; bovine serum albumin and purified FLAG-tagged XBP1s run on SDS-PAGE and transferred to a membrane; incubated with human P300 protein (1 µg) for 16 h; detected with antibody against P300; both purified.

Test [1] has as its target bovine serum albumin (bovine) (UniProt P02769). The description is as above.
Test [2] has as its target T2, insulin receptor substrate 2 (IRS2), endogenous, mouse (mouse (endogenous in liver and Hepa1-6 cells)) (UniProt P81122).
T2 sequence: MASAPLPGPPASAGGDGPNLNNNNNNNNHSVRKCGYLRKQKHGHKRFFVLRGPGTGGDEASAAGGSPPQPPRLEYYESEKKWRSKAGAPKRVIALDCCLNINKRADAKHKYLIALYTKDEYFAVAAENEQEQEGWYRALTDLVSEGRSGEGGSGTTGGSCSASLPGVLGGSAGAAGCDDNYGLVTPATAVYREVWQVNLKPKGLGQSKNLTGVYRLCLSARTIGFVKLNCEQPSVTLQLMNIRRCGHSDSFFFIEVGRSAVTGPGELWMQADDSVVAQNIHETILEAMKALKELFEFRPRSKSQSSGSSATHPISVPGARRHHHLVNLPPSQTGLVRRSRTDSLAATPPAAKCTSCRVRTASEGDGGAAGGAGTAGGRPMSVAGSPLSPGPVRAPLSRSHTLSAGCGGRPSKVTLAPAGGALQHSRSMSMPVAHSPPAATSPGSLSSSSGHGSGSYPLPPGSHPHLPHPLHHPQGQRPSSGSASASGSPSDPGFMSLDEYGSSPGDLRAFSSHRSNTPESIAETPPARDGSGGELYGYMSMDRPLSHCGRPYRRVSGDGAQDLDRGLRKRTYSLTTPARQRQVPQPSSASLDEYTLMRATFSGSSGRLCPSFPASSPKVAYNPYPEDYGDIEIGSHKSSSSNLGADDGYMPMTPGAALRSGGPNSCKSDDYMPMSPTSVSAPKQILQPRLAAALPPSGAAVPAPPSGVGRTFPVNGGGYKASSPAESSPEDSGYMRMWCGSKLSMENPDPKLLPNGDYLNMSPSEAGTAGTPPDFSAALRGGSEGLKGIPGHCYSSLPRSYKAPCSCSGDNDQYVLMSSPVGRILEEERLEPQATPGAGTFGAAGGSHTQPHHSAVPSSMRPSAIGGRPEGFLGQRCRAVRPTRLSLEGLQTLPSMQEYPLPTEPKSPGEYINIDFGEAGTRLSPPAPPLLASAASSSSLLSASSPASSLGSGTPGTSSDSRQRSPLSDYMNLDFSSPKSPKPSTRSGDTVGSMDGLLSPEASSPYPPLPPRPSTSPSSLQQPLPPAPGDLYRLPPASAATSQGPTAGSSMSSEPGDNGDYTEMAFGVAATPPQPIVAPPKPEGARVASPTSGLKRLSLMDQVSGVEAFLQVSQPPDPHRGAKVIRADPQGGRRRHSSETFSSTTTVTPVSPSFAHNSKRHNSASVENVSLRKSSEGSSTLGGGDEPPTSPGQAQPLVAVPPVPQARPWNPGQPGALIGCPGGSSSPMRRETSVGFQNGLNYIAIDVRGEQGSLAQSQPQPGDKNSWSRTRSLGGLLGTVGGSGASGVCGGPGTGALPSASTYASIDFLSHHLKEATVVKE
Put plainly: co-IP; endogenous proteins in Hepa1-6 cells treated with 20 µM C37 or inhibitor C646 for 4 h.

Test [3] addresses T3, FLAG-tagged IRS2-WT (mouse) (UniProt P81122).
T3 sequence: T2 sequence
In words: co-IP; FLAG-tagged IRS1/2-WT or -panKR transfected into Hepa1-6 cells for 48 h; pulled down with anti-FLAG magnetic beads; endogenous IRβ detected.

For test [4], the target named is T2, insulin receptor substrate 2 (IRS2), endogenous, mouse (mouse (endogenous in liver and Hepa1-6 cells)). Put plainly: co-IP; endogenous proteins in mouse liver lysates (ob/ob and lean control mice; HFD-fed mice treated with vehicle or C646); antibody at 4 °C for 16 h, protein G beads.
The target in test [5] is acetyltransferase P300 (endogenous, mouse) (mouse (endogenous in Hepa1-6 cells and mouse liver)) (UniProt B2RWS6). In words: co-IP; liver lysates from mice fed an HFD (3 weeks) incubated with P300-specific antibody and protein G beads overnight, washed, then incubated for 2 h with the peptide used to generate the P300 antibody.

Consider “human P300 protein (from UniProt Q09472 1-2414) (enzyme)”, for which the binding entry is reported as “binds” in the test with FLAG-tagged XBP1s and “no binding (tested: 1 µg human P300 protein)” in test [1].
Turning to “insulin receptor β-subunit (IRβ), endogenous, mouse (from UniProt P15208 753-1372)”, the binding entry in test [2] was “binds”; in test [3], “binds”; in test [4], “binds”; in test [5], “no binding”.

B1: insulin receptor substrate 2 (IRS2), endogenous, mouse (protein, UniProt P81122 1-1321)
chain: T2 sequence
For B1, in test [5], the binding entry was “binds”.
